Assay [1] concerns ReNCell VM. Description: neuronal differentiation score (DCX+ cell fraction vs untreated, manual image score) (score (-3 to 3)); higher = more neuronal differentiation. Conditions: 2 uM, 2 weeks.
The subject of assay [2] is ReNCell VM. The assay can be described thus: dopaminergic neuron differentiation score (TH+ cell fraction vs untreated, manual image score) (score (0 to 3)); higher = more TH+ dopaminergic neuron differentiation. Conditions: 2 uM, 4 weeks, BDNF 10 ng/ml + GDNF 10 ng/ml.

Where a name gives a salt, the structure may show the parent alone. Some of the results follow. Single values are uncertain here, since repeats match poorly.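 Cells: ReNCell VM human fetal ventral-midbrain neural progenitors, differentiated mitogen-free. Blinded raters compared doublecortin-stained (early neurons) or tyrosine hydroxylase-stained (dopaminergic neurons) images with untreated wells, where 0 means no change. After repeats and both raters were averaged, compounds scoring 2 or above became hits for retesting.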

On to `Nc1nc2c(nc(Br)n2[C@@H]2O[C@@H]3COP(=O)(O)O[C@H]3[C@H]2O)c(=O)[nH]1` [8-Bromo-cGMP, sodium salt], for which, in the assay on ReNCell VM [1] (library: Tocriscreen), the neuronal differentiation score is inactive: 0. Moreover, the “dopaminergic neuron differentiation score” value in the assay with ReNCell VM [2] (library: Tocriscreen) is inactive: 0.

With `CNc1cc(OC)c(C(=O)NC2CCN(Cc3ccccc3)C2C)cc1Cl` (stereo not given) [Nemonapride], in the assay with ReNCell VM [1] (library: Tocriscreen), the neuronal differentiation score was inactive: 0. In addition, in the assay on ReNCell VM [2] (library: Tocriscreen), the “dopaminergic neuron differentiation score” value is inactive: 0.

Regarding `OCC(O)CN1CCN(c2ccccc2)CC1` (racemic) [Dropropizine (R,S)], in the assay with ReNCell VM [1] (library: Prestwick), the neuronal differentiation score is inactive: 0. Besides, the “dopaminergic neuron differentiation score” value in the assay with ReNCell VM [2] (library: Prestwick) is inactive: 0.

On to `O=C(O)COCCN1CCN([C@H](c2ccccc2)c2ccc(Cl)cc2)CC1`, for which, in the assay with ReNCell VM [1] (library: Spectrum), the neuronal differentiation score was inactive: 0. The “dopaminergic neuron differentiation score” value with ReNCell VM [2] (library: Spectrum) was inactive: 0.

Take `CC1(C)O[C@@H]2C[C@H]3[C@@H]4CCC5=CC(=O)C=C[C@]5(C)[C@@]4(F)[C@@H](O)C[C@]3(C)[C@]2(C(=O)CO)O1`: the neuronal differentiation score with ReNCell VM [1] (library: Spectrum) was inactive: 0. The “dopaminergic neuron differentiation score” value in the assay with ReNCell VM [2] (library: Spectrum) was inactive: 0.

Consider `CCC(=O)OCC(=O)[C@@]1(OC(=O)CC)[C@@H](C)C[C@H]2[C@@H]3CCC4=CC(=O)C=C[C@]4(C)[C@@]3(Cl)[C@@H](O)C[C@@]21C`, for which the neuronal differentiation score with ReNCell VM [1] (library: Spectrum) is inactive: 0. The “dopaminergic neuron differentiation score” value with ReNCell VM [2] (library: Spectrum) was inactive: 0.

For `CN(C)C/C=C(/c1ccc(Br)cc1)c1cccnc1` [Zimelidine dihydrochloride monohydrate], the neuronal differentiation score in the assay with ReNCell VM [1] (library: Prestwick) was inactive: 0. Moreover, the “dopaminergic neuron differentiation score” value in the assay with ReNCell VM [2] (library: Prestwick) was inactive: 0.

As to `CCC(=O)c1ccc2c(c1)N(CCCN(C)C)c1ccccc1S2` [Propionylpromazine hydrochloride], the neuronal differentiation score in the assay on ReNCell VM [1] (library: LOPAC) was inactive: 0. Also, in the assay on ReNCell VM [2] (library: LOPAC), the “dopaminergic neuron differentiation score” value is inactive: 0.

As to `COc1cc(N)c(Cl)cc1C(=O)OCCCN1CCCCC1`, the neuronal differentiation score in the assay on ReNCell VM [1] (library: Tocriscreen) was inactive: 0. For the same compound, the “dopaminergic neuron differentiation score” value in the assay on ReNCell VM [2] (library: Tocriscreen) is inactive: 0.

Consider `Oc1c(Cl)cc(Cl)c(Cl)c1Cc1c(O)c(Cl)cc(Cl)c1Cl` [Hexachlorophene], for which, in the assay on ReNCell VM [1] (library: Prestwick), the neuronal differentiation score is inactive: 0. Also, in the assay on ReNCell VM [2] (library: Prestwick), the “dopaminergic neuron differentiation score” value was active: 3.
